# Structures can show the parent of a compound that is named as a salt. Among all 5,300 compounds or so, about 130 (2.5%) showed an effect of 50% or more. This is one part of the list.
# Tested on: M. mycetomatis strain mm55
# Settings: primary screen, metabolic activity vs growth control; 96 h, 2 µM; inhibitor
row,Compound,% viability [%]
1,"Oc1ccc(C2(c3ccccc3F)CCC(F)(F)CC2)cc1 [ONC0000174, ac186]",93.25
2,"NC1=NCC2c3ccccc3Cc3ccccc3N12 (centres unmarked) [ONC0004471, epinastine hcl]",120.4
3,"O=C(O)CCC(=O)O [ONC0003714, succinic acid]",98.68
4,"CN[C@H](CNC(=O)N1CCC[C@@H]([C@@H](OCCNC(=O)OC)c2cccc(Cl)c2)C1)C[C@H]1CCCOC1 [ONC0002041, vtp27999 hydrochloride]",62.33
5,"Cc1ccc(C23CNCC2C3)cc1 (centres unmarked) [ONC0001899, bicifadine]",84.51
6,"O=c1[nH]c(=O)n([C@H]2C[C@H](O)[C@@H](CO)O2)cc1C(F)(F)F [ONC0003908, trifluridine]",61.31
7,"Cc1cc(C#N)cc(C)c1Oc1nc(Nc2ccc(C#N)cc2)nc(N)c1Br [ONC0005114, etravirine tmc125]",112.9
8,"Cn1cncc1[C@@](N)(c1ccc(Cl)cc1)c1ccc2c(c1)c(-c1cccc(Cl)c1)cc(=O)n2C [ONC0004838, tipifarnib zarnestra]",92.61
9,"CC(C)[C@@H](N)C(=O)O [ONC0001949, dvaline]",68.66
10,"CCCC(=O)O[C@]1(C(=O)CO)CC[C@H]2[C@@H]3CCC4=CC(=O)CC[C@]4(C)[C@H]3[C@@H](O)C[C@@]21C [ONC0002884, hydrocortisone butyrate]",87.92
11,"CC1(C)S[C@@H]2[C@H](NC(=O)COc3ccccc3)C(=O)N2[C@H]1C(=O)O [ONC0000449, penicillin v potassium]",88.8
12,"O=C(CN1C(=O)C2(CCCC2)NC[C@H]1c1cc(F)cc(F)c1)Nc1ccc2c(c1)C[C@@]1(C2)C(=O)Nc2ncccc21 [ONC0000767, mk3207 hydrochloride]",76.45
13,"Cc1cc(F)c(Nc2ncnc3cc(OCc4ccccc4)ccc23)cc1O [ONC0001361, zm323881]",106.8
14,"COc1ccc2c3c1O[C@H]1C[C@@H](O)C=C[C@@]31CCN(C)C2 [ONC0000593, galantamine]",145.4
15,"COc1cc(C(=O)NC2CCN(C)CC2)c(F)cc1Nc1ncc2c(n1)N(C1CCCC1)CC(F)(F)C(=O)N2C [ONC0000216, tak960]",78.5
16,"O=C(NNc1ccccc1)c1ccncc1 [ONC0004620, plurisin 1 nsc 14613]",71.9
17,"CCCCC/C=C\C=C/CCCCCCCCC(=O)O [ONC0003827, trans10cis12conjugatedlinoleicacid]",57.74
18,"Cc1nc2c(O)cccc2c(=O)[nH]1 [ONC0001423, nu1025]",87.37
19,"CC(C)n1cnc2c(NCCc3ccc(O)cc3)nc(-c3csc4ccccc34)nc21 [ONC0005278, stemregenin 1]",128.8
20,"CN[C@H](CC(C)C)C(=O)N[C@H]1C(=O)N[C@@H](CC(N)=O)C(=O)N[C@H]2C(=O)N[C@H]3C(=O)N[C@H](C(=O)N[C@H](C(=O)O)c4cc(O)cc(O)c4-c4cc3ccc4O)[C@H](O[C@H]3C[C@](C)(N)[C@@H](O)[C@H](C)O3)c3ccc(c(Cl)c3)Oc3cc2cc(c3O[C@@H]2O[C@H](CO)[C@@H](O)[C@H](O)[C@H]2O[C@H]2C[C@](C)(NCc3ccc(-c4ccc(Cl)cc4)cc3)[C@@H](O)[C@H](C)O2)Oc2ccc(cc2Cl)[C@H]1O [ONC0002279, oritavancin diphosphate]",112.8

row,Compound,% viability [%]
1,"c1cc(CN2CCCNCCNCCCNCC2)ccc1CN1CCCNCCNCCCNCC1 [ONC0001133, plerixafor]",52.62
2,"CN1CC[C@@H](c2c(O)cc(O)c3c(=O)cc(-c4ccccc4Cl)oc23)[C@@H]1CO [ONC0004480, p27600]",140.9
3,"O=C(NCCCNc1nc(Nc2cccc(NC(=O)N3CCCC3)c2)ncc1I)c1cccs1 [ONC0004591, bx795]",61.99
4,"CC1(C)Oc2ccc(C#N)cc2[C@@H](OC2=CC(=O)CC2)[C@@H]1O [ONC0003452, pco 400]",40.31
5,"NCCCCN [ONC0002141, putrescine]",100.9
6,"CN(Cc1ccc(C(C)(C)C)cc1)Cc1cccc2ccccc12 [ONC0004830, butenafine hcl]",82.04
7,"CN(C)CCOc1cc(-c2cn[nH]c2)ccc1NC(=O)C1COc2ccccc2O1 (centres unmarked) [ONC0001682, sr3677]",115.7
8,"Cc1ncccc1OC[C@@H]1CCCN1 [ONC0005536, pozanicline]",58.93
9,"C=C[C@@](C)(/C=C/c1ccc(O)cc1)CCC=C(C)C [ONC0002205, bakuchiol]",54.36
10,"CCCOc1ccc(Br)cc1-c1cc(-c2ccc(Cl)cc2)[nH]c1-c1ccncc1 [ONC0002613, l168049]",85.53
11,"Cc1ccccc1C(=O)Nc1ccc(C(=O)N2CCCC(N(C)C)c3ccccc32)cc1 (centres unmarked) [ONC0004579, mozavaptan]",82.99
12,"CCC(=O)c1ccc(OCC(O)CN2CCN(c3ccccc3)CC2)cc1 (centres unmarked) [ONC0003757, centpropazine]",103
13,"NS(=O)(=O)c1ccc(NC(=O)Nc2ccc(F)cc2)cc1 [ONC0000948, u104]",88.68
14,"CNC(=S)C1(c2ccccn2)CCCS1 (centres unmarked) [ONC0003719, picartamide]",105
15,"CC(=O)CC(c1ccc([N+](=O)[O-])cc1)c1c(O)c2ccccc2oc1=O (centres unmarked) [ONC0005289, acenocoumarin]",97.28
16,"CCCCCCCCNC(C)C(O)c1ccc(SC(C)C)cc1 (centres unmarked) [ONC0000631, suloctidil]",126.6
17,"C=C1C(=O)O[C@@H]2[C@H]3O[C@]3(C)CC/C=C(\C)CC[C@@H]12 [ONC0002950, parthenolidealternatestereo]",150.2
18,"O=C(O)c1cc([N+](=O)[O-])ccc1NCCCc1ccccc1 [ONC0001864, nppb]",86.87
19,"CC[C@H](C)[C@H](NC(=O)[C@H](Cc1ccc(O)cc1)NC(=O)[C@@H](NC(=O)[C@H](CCCNC(=N)N)NC(=O)[C@@H](N)CC(=O)O)C(C)C)C(=O)N[C@@H](Cc1c[nH]cn1)C(=O)N1CCC[C@H]1C(=O)O [ONC0002012, angiotensin 17]",92.07
20,"CONC(=N)c1ccc(-c2ccc(-c3ccc(C(=N)NOC)cc3)o2)cc1 [ONC0000712, pafuramidine]",88.84

# Arranged by formula weight (smallest number first): 13 of the compounds above.
row,Compound,% viability [%]
5,"NCCCCN [ONC0002141, putrescine]",100.9
8,"Cc1ncccc1OC[C@@H]1CCCN1 [ONC0005536, pozanicline]",58.93
14,"CNC(=S)C1(c2ccccn2)CCCS1 (centres unmarked) [ONC0003719, picartamide]",105
17,"C=C1C(=O)O[C@@H]2[C@H]3O[C@]3(C)CC/C=C(\C)CC[C@@H]12 [ONC0002950, parthenolidealternatestereo]",150.2
6,"CN(Cc1ccc(C(C)(C)C)cc1)Cc1cccc2ccccc12 [ONC0004830, butenafine hcl]",82.04
15,"CC(=O)CC(c1ccc([N+](=O)[O-])cc1)c1c(O)c2ccccc2oc1=O (centres unmarked) [ONC0005289, acenocoumarin]",97.28
20,"CONC(=N)c1ccc(-c2ccc(-c3ccc(C(=N)NOC)cc3)o2)cc1 [ONC0000712, pafuramidine]",88.84
12,"CCC(=O)c1ccc(OCC(O)CN2CCN(c3ccccc3)CC2)cc1 (centres unmarked) [ONC0003757, centpropazine]",103
2,"CN1CC[C@@H](c2c(O)cc(O)c3c(=O)cc(-c4ccccc4Cl)oc23)[C@@H]1CO [ONC0004480, p27600]",140.9
10,"CCCOc1ccc(Br)cc1-c1cc(-c2ccc(Cl)cc2)[nH]c1-c1ccncc1 [ONC0002613, l168049]",85.53
1,"c1cc(CN2CCCNCCNCCCNCC2)ccc1CN1CCCNCCNCCCNCC1 [ONC0001133, plerixafor]",52.62
3,"O=C(NCCCNc1nc(Nc2cccc(NC(=O)N3CCCC3)c2)ncc1I)c1cccs1 [ONC0004591, bx795]",61.99
19,"CC[C@H](C)[C@H](NC(=O)[C@H](Cc1ccc(O)cc1)NC(=O)[C@@H](NC(=O)[C@H](CCCNC(=N)N)NC(=O)[C@@H](N)CC(=O)O)C(C)C)C(=O)N[C@@H](Cc1c[nH]cn1)C(=O)N1CCC[C@H]1C(=O)O [ONC0002012, angiotensin 17]",92.07

# (further entries)

row,Compound,% viability [%]
1,"CN1C(C(=O)Nc2ccccn2)C(=O)c2ccccc2S1(=O)=O (centres unmarked) [ONC0000491, piroxicam]",59.07
2,"Cc1cc2c(OCC(CNC(C)(C)C)OC(=O)c3ccccc3)cccc2[nH]1 (centres unmarked) [ONC0002018, bopindolol malonate]",78.31
3,"Cc1ccc(Sc2ccccc2N2CCNCC2)c(C)c1 [ONC0005476, vortioxetine hydrobromide]",112.5
4,"COc1ccc(CN(CCN(C)C)c2ncccn2)cc1 [ONC0002843, thonzylamine hydrochloride]",113.4
5,"O=C(/C=C/c1cccc(F)c1)NC1CC1 [ONC0002298, cinflumide]",78.83
6,"CNCCC=C1c2ccccc2C=Cc2ccccc21 [ONC0002967, norcyclobenzaprine]",163.7
7,"NCC(=O)CCC(=O)O [ONC0004291, aminolevulinic acid hydrochloride]",48.43
8,"N[C@H](CSC(c1ccccc1)(c1ccccc1)c1ccccc1)C(=O)O [ONC0001742, strityllcysteine]",48.39
9,"C[C@H](NC(=O)CCc1nc2ccccc2c(=O)[nH]1)c1ccccc1 [ONC0001681, me0328]",86.28
10,"CC(C)[C@H](NS(=O)(=O)c1ccc(-c2ccc(Br)cc2)cc1)C(=O)O [ONC0003050, pd166793]",65.92
11,"CNC(=NCCSCc1csc(N=C(N)N)n1)NC#N [ONC0000218, tiotidine]",69.93
12,"CN1CCC(CNc2ccc3ncc(-c4cccc(OC(F)(F)F)c4)n3n2)CC1 [ONC0005001, sgi1776 free base]",77.23
13,"N#C/C(=C\c1cccn1S(=O)(=O)c1cccc([N+](=O)[O-])c1)S(=O)(=O)c1ccc(F)cc1 [ONC0001054, amz30]",89.83
14,"O=C(CCCN1CCC(O)(c2ccc(Cl)cc2)CC1)c1ccc(F)cc1 [ONC0000543, haloperidol]",91.04
15,"Nc1ncnc2c1ncn2C1O[C@H](COP(=O)(O)O)[C@@H](O)[C@H]1O (some centres unmarked) [ONC0003358, adenosine 5monophosphate]",77.31
16,"COc1cc2c(cc1OC)[C@@H]1Cc3ccc(OC)c(OC)c3CN1CC2 [ONC0004981, rotundine]",87.52
17,"CCC(=O)O[C@]1(C(=O)COC(C)=O)CC[C@H]2[C@@H]3C[C@H](C)C4=CC(=O)C=C[C@]4(C)[C@H]3[C@@H](O)C[C@@]21C [ONC0002914, methylprednisoloneaceponate]",81.53
18,"CC1(C)CC[C@]2(C(=O)O)CC[C@]3(C)[C@H](C(=O)C=C4[C@@]5(C)C=C(C#N)C(=O)C(C)(C)[C@@H]5CC[C@]43C)[C@@H]2C1 [ONC0003434, bardoxolone rta 401]",58.72
19,"CCC[N+]12C3C[C@H](C4C(O)[C@]5(C[C@@H]41)c1ccccc1N(C)[C@@H]35)[C@H](CC)[C@H]2O (some centres unmarked) [ONC0002893, neogilurytmal]",98.09

# Source: article PMC12670160, “A drug-repurposing screen of FDA- and EMA-approved drugs identifies two NF-κB inhibitors active against eumycetoma” (Journal of Antimicrobial Chemotherapy, 2025)
